Experimental data from PMC8298518.
These are yes or no findings as the source states them, for the method shown. Binding seen in cells or lysates may run through a third protein. For part of these data: A result given as binding can be weak or reduced; the word gives no strength. For part of these data: Where a sequence is shown, tags or fusion partners need not be part of it.

Protein sequences, listed by entry. Tags and fused reporters are not part of them. Lines headed by an entry give the natural chain unless they say otherwise; changes in a name come on top.
UniProt Q07820: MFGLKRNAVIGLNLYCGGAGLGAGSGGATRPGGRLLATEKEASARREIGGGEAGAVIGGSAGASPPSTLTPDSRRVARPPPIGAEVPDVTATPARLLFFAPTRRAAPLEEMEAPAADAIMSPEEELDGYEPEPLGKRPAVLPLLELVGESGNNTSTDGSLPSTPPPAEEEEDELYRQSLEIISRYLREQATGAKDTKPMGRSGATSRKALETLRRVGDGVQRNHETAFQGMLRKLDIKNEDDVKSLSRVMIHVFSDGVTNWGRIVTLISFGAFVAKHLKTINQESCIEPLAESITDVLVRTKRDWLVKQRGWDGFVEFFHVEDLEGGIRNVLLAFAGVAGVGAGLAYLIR

T1: HA-GBP2 (human) (UniProt P32456)
T1 sequence: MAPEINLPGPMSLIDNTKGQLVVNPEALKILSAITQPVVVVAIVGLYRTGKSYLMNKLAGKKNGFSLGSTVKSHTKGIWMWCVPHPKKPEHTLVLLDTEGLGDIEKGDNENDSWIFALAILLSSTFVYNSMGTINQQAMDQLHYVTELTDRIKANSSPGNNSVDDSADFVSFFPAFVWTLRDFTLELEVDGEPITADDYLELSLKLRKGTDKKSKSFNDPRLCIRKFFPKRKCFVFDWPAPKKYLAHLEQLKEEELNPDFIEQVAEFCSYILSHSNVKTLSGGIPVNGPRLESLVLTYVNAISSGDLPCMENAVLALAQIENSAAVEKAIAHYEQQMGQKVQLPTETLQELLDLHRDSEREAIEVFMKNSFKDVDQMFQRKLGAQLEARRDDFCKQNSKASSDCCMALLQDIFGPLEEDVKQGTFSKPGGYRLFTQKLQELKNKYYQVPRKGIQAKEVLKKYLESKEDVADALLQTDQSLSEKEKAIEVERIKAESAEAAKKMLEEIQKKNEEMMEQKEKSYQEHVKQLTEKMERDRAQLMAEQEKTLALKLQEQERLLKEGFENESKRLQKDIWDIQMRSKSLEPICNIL

T2: HA-GBP1 (UniProt P32455)
T2 sequence: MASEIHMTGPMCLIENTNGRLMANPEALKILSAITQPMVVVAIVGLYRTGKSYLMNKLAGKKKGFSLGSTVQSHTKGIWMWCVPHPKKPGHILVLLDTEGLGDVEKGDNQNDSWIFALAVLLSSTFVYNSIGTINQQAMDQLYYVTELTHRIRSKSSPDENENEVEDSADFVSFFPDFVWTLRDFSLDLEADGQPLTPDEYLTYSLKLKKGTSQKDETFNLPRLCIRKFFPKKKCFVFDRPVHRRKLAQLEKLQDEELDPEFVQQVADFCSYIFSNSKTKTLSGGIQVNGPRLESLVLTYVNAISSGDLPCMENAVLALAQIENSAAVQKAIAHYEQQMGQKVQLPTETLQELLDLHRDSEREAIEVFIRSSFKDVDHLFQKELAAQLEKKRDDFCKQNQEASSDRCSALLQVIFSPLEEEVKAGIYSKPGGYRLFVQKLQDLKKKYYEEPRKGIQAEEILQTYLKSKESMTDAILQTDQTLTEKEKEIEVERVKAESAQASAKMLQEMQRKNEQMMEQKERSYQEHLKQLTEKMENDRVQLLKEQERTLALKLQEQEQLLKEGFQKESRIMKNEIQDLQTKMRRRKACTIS


Legend:
HA-GBP2 (human) = biological target: T1, HA-GBP2 (human); experiment: co-IP; 293T cells (2 x 10^6) cotransfected for 24 h; lysates immunoprecipitated with anti-HA
HA-GBP1 = biological target: T2, HA-GBP1; experiment: co-IP; immunoprecipitation experiments using mutants of MCL-1 and GBP1 (Supplementary Fig. 2a, b)
[1] = biological target: purified recombinant MCL-1 (human) (UniProt Q07820); experiment: co-IP; in vitro: purified recombinant GBP2 and MCL-1 (0.5 µg), with or without SAHBB (10 µM), immunoprecipitation and immunoblotting; both purified

Row | Molecule | binding (HA-GBP2 (human)) | binding (HA-GBP1) | binding [1]
1 | MCL-1 BH3 mutant (BH3M) (from UniProt Q07820) | no binding | no binding | 
2 | purified recombinant GBP2 (protein, UniProt P32456 1-591) MAPEINLPGPMSLIDNTKGQLVVNPEALKILSAITQPVVVVAIVGLYRTGKSYLMNKLAGKKNGFSLGSTVKSHTKGIWMWCVPHPKKPEHTLVLLDTEGLGDIEKGDNENDSWIFALAILLSSTFVYNSMGTINQQAMDQLHYVTELTDRIKANSSPGNNSVDDSADFVSFFPAFVWTLRDFTLELEVDGEPITADDYLELSLKLRKGTDKKSKSFNDPRLCIRKFFPKRKCFVFDWPAPKKYLAHLEQLKEEELNPDFIEQVAEFCSYILSHSNVKTLSGGIPVNGPRLESLVLTYVNAISSGDLPCMENAVLALAQIENSAAVEKAIAHYEQQMGQKVQLPTETLQELLDLHRDSEREAIEVFMKNSFKDVDQMFQRKLGAQLEARRDDFCKQNSKASSDCCMALLQDIFGPLEEDVKQGTFSKPGGYRLFTQKLQELKNKYYQVPRKGIQAKEVLKKYLESKEDVADALLQTDQSLSEKEKAIEVERIKAESAEAAKKMLEEIQKKNEEMMEQKEKSYQEHVKQLTEKMERDRAQLMAEQEKTLALKLQEQERLLKEGFENESKRLQKDIWDIQMRSKSLEPICNIL |  |  | binds
